Laboratory results taken from PMC4918316.
Results are given in words; binding and its absence hold for the method and conditions named. For some of these results: Binding seen in cells or lysates may run through a third protein. For some of these results: Binding can be weak; no strength is given. For some of these results: Tags and fused reporters may be left off the sequences shown.

Tests used:
[1] = biological target: Drosophila KANSL3 tagged with 3FLAG (Drosophila); test: pull-down; all seven members co-expressed in SF21 cells, only KANSL3 tagged (3FLAG); cell extract incubated with FLAG beads; done separately for the human and the Drosophila complex
[2] = biological target: 3FLAG/HA-tagged Drosophila KANSL1 (Drosophila melanogaster); test: pull-down; recombinant 3FLAG/HA protein at 100 nM incubated in CSF-arrested Xenopus egg extract with 10 uM RanGTPQ69L, retrieved on Protein A Dynabeads coupled with anti-HA antibodies; western blot of the beads; only the target purified
[3] = biological target: 3FLAG/HA-tagged Drosophila KANSL3 (Drosophila melanogaster); test: as above
[4] = biological target: taxol-stabilized microtubules (bovine tubulin) (bovine); test: co-sedimentation; 3 uM taxol-stabilized microtubules with 250 nM recombinant protein, 30 min at 4 °C; pelleted through a 30% glycerol cushion at 100,000g; western blot of supernatant and pellet; both purified

B1: Drosophila MOF, untagged (protein, UniProt O02193 1-827)
chain: MSEAELEQTPSAGHVQEQPIEEEHEPEQEPTDAYTIGGPPRTPVEDAAAELSASLDVSGSDQSAEQSLDLSGVQAEAAAESEPPAKRQHRDISPISEDSTPASSTSTSSTRSSSSSRYDDVSEAEEAPPEPEPEQPQQQQQEEKKEDGQDQVKSPGPVELEAQEPAQPQKQKEVVDQEIETEDEPSSDTVICVADINPYGSGSNIDDFVMDPDAPPNAIITEVVTIPAPLHLKGTQQLGLPLAAPPPPPPPPAAEQVPETPASPTDDGEEPPAVYLSPYIRSRYMQESTPGLPTRLAPRDPRQRNMPPPAVVLPIQTVLSANVEAISDDSSETSSSDDDEEEEEDEDDALTMEHDNTSRETVITTGDPLMQKIDISENPDKIYFIRREDGTVHRGQVLQSRTTENAAAPDEYYVHYVGLNRRLDGWVGRHRISDNADDLGGITVLPAPPLAPDQPSTSREMLAQQAAAAAAASSERQKRAANKDYYLSYCENSRYDYSDRKMTRYQKRRYDEINHVQKSHAELTATQAALEKEHESITKIKYIDKLQFGNYEIDTWYFSPFPEEYGKARTLYVCEYCLKYMRFRSSYAYHLHECDRRRPPGREIYRKGNISIYEVNGKEESLYCQLLCLMAKLFLDHKVLYFDMDPFLFYILCETDKEGSHIVGYFSKEKKSLENYNVACILVLPPHQRKGFGKLLIAFSYELSRKEGVIGSPEKPLSDLGRLSYRSYWAYTLLELMKTRCAPEQITIKELSEMSGITHDDIIYTLQSMKMIKYWKGQNVICVTSKTIQDHLQLPQFKQPKLTIDTDYLVWSPQTAAAVVRAPGNSG
binding [1]: binds

B2: MCAK of Xenopus egg extract (protein, UniProt Q91636 1-730)
chain: MERLVATRLVTGLAVKIMRSNGVIHNANITSVNMDRSSVNVEWKEGEANKGKEISFADVISVNPELLDAVLAPTNVKENMPPQRNVSSQNHKRKTISKIPAPKEVAAKNSLLSESGAQSVLRERSTRMTAIHETLPYENEMEAESTPLPIQQNSVQARSRSTKVSIAEEPRLQTRISEIVEESLPSGRNNQGRRKSNIVKEMEKMKNKREEQRAQNYERRMKRAQDYDTSVPNWEFGKMIKEFRATMDCHRISMADPAEEHRICVCVRKRPLNKQELSKKEIDIISVPSKNIVLVHEPKLKVDLTKYLENQAFRFDFSFDETATNEVVYRFTARPLVQSIFEGGKATCFAYGQTGSGKTHTMGGDFSGKSQNVSKGVYAFASRDVFLLLDQPRYKHLDLDVFVTFFEIYNGKVFDLLNKKTKLRVLEDAKQEVQVVGLLEKQVISADDVFKMIEIGSACRTSGQTFANTSSSRSHACLQIILRRGSKLHGKFSLVDLAGNERGVDTASADRITRMEGAEINRSLLALKECIRALGQNKSHTPFRESKLTQILRDSFIGENSRTCMIAMLSPGFNSCEYTLNTLRYADRVKELSPQNAETNDDNLQMEDSGGSHASIEGLQLQDDFLLKDEELSTHNSFQDALNRVGELEDKAVDELRELVQKEPEWTNLLQMTEQPDYDLENFVMQAEYLIQERSKVLIALGDSINSLRLALQVEEQASKQISKKKRSNK
binding [2]: binds
binding [3]: binds

B3: 3FLAG/HA-tagged Drosophila males absent on the first (MOF) (protein, UniProt O02193 1-827)
chain: B1 chain
binding [4]: no binding (tested: 250 nM)
